Experimental data from patent publication US8158376B2, “Bisubstrate fluorescent probe binding to protein kinases” (University of Tartu, priority 2006, dated 2012).
At least one structure is not confirmed: it was looked up by name or label, or the drawing left a doubt.

Chains of the proteins cited; added tags and fusions are not shown. Lines headed by an entry give the natural chain unless they say otherwise; changes in a name come on top.
UniProt P68400, whole entry: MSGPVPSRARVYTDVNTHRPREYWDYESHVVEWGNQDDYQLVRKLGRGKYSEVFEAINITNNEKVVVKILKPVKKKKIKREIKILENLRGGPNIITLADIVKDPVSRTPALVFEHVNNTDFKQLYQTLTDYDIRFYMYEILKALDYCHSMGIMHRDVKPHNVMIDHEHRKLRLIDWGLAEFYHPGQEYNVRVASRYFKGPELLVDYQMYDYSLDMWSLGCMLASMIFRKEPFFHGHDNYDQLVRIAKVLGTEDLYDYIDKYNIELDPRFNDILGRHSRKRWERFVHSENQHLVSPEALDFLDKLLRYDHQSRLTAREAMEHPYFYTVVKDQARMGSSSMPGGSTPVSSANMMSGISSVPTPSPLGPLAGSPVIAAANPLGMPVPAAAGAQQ
UniProt O96017, whole entry: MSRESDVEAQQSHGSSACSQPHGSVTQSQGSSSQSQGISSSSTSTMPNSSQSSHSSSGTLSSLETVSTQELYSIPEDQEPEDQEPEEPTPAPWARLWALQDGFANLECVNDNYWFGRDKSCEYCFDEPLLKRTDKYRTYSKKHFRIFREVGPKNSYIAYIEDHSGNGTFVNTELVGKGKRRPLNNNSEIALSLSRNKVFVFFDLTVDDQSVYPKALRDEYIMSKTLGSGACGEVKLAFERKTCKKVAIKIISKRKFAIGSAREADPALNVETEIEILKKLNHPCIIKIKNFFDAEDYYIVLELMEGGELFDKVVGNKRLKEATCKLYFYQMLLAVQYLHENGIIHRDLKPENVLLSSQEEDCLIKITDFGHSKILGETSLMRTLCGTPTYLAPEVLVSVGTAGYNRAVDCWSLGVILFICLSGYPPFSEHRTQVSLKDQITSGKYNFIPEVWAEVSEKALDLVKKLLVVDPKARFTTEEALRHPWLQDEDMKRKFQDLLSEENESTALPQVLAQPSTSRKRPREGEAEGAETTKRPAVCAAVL
UniProt P23443: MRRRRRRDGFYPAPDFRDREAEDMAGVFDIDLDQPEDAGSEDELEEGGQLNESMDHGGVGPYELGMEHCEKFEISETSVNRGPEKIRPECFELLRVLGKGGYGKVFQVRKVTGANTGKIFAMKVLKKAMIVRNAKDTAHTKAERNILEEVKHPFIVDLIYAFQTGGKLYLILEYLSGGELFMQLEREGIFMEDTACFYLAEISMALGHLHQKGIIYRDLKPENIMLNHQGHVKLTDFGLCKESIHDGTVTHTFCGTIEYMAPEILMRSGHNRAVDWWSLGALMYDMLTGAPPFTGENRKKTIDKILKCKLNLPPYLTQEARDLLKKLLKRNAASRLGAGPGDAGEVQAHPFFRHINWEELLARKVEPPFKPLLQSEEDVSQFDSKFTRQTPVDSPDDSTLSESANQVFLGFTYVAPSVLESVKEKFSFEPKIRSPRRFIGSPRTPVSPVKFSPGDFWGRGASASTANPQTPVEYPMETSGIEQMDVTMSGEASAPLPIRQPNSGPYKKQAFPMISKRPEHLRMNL

Legend:
Assay type in all cases: biochemical
[1] = target: CK2 (Homo sapiens, UniProt P68400); assay: Kinase selectivity panel; settings: inhibitor 1 μM; ATP 5 μM
Procedure: The panel of kinases included all 52 kinases available for testing.
The assay of protein kinases was performed at 30° C. as described previously [Davies et al., Biochem. J. 351 (2000) 95; Murray et al., Biochem. J. 384 (2004) 477].

[2] = target: T1, CHK1 (Homo sapiens, UniProt O14757); assay: Kinase selectivity panel, residual activity; settings: 1 μM compound, 20 μM ATP, 30° C.
T1 sequence (O14757 1-476): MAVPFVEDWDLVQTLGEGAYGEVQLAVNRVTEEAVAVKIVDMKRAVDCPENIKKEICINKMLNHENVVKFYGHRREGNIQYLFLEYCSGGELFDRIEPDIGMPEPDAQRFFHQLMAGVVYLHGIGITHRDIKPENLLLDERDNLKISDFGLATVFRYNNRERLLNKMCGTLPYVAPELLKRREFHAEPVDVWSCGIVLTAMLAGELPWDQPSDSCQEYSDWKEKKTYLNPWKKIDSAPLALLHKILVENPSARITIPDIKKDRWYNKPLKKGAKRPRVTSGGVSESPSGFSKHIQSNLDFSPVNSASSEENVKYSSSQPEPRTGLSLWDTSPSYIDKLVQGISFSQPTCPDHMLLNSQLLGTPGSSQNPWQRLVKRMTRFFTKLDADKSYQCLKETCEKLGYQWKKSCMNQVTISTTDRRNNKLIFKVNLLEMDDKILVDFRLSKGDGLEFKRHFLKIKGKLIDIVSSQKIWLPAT

[3] = system: ROCK-II; assay: Kinase selectivity panel, residual activity; settings: 1 μM compound, 20 μM ATP, 30° C.
[4] = system: PKBΔph; assay: Kinase selectivity panel; settings: inhibitor 1 μM; ATP 5 μM
[5] = target: CHK2 (Homo sapiens, UniProt O96017); assay: Kinase selectivity panel, residual activity; settings: 1 μM compound, 20 μM ATP, 30° C.
[6] = system: AMPK; assay: Kinase selectivity panel; settings: inhibitor 1 μM; ATP 50 μM
[7] = target: P70 S6K (Homo sapiens, UniProt P23443); assay: Kinase selectivity panel, residual activity; settings: 1 μM compound, 20 μM ATP, 30° C.
[8] = system: MAPKAP-K1b/rsk-2; assay: Kinase selectivity panel, residual activity; settings: 1 μM compound, 50 μM ATP, 30° C.
[9] = system: MAPKAP-K1a/rsk-1; assay: Kinase selectivity panel, residual activity; settings: 1 μM compound, 50 μM ATP, 30° C.

SMILES | residual activity (%) CK2 [1] | residual activity [2] | residual activity [3] | residual activity (%) PKBΔph [4] | residual activity [5] | residual activity (%) AMPK [6] | residual activity [7] | residual activity [8] | residual activity [9]
N=C(N)NCCC[C@@H](NC(=O)[C@@H](CCCNC(=N)N)NC(=O)[C@@H](CCCNC(=N)N)NC(=O)[C@@H](CCCNC(=N)N)NC(=O)[C@@H](CCCNC(=N)N)NC(=O)[C@@H](CCCNC(=N)N)NC(=O)CCCCCNC(=O)[C@H]1O[C@@H](n2cnc3c(N)ncnc32)[C@H](O)[C@@H]1O)C(N)=O [Compound 5, AdcAhx(D-Arg)6-NH2] | retained full activity | inhibited more strongly by 5 than by 26 | ≤ 3% | 2 (±0) % | inhibited more strongly by 5 than by 26 | 48 (±6) % |  |  | 
N=C(N)NCCC[C@@H](NC(=O)[C@@H](CCCNC(=N)N)NC(=O)[C@@H](CCCNC(=N)N)NC(=O)[C@@H](CCCNC(=N)N)NC(=O)[C@@H](CCCNC(=N)N)NC(=O)[C@@H](CCCNC(=N)N)NC(=O)CCCCCNCCNS(=O)(=O)c1cccc2cnccc12)C(N)=O [Compound 26, H9-(CH2)5C(O)(D-Arg)6-NH2] |  |  | ≤ 3% |  |  |  | inhibited almost completely | inhibited almost completely | inhibited almost completely
